Measured values reported in the supplement of paper PMC12889115.
The other results are listed elsewhere or left out. These are raw signals, not scaled to a control.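 In the initial screen, polymyxin B was used at a concentration that permeabilizes Salmonella's outer membrane but not its inner membrane. Maximum growth was set by DMSO wells with or without polymyxin B. Since plates varied, data were ranked per plate, and compounds giving the lowest OD600 advanced as hits.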

Tested on: Salmonella enterica serovar Typhimurium SL1344
Assay: bacterial growth OD600 after 18 h with compound and polymyxin B; higher = more bacterial growth (less inhibition)
Details: 50 µM, Mueller-Hinton broth

| SMILES | bacterial growth OD600 (polymyxin B 0.75 µg/mL) | bacterial growth OD600 (polymyxin B 1 µg/mL) |
| --- | --- | --- |
| O=C(c1ccc2ncccc2c1)N1CCc2[nH]nc(-c3cccc(F)c3)c2C1 | 0.007 | – |
| CCN1CCN(C2(C(=O)NC(C)Cc3ncccc3C)Cc3ccccc3C2)CC1 (stereo not given) | 0.775 | – |
| Cc1cccc(CN2CCC(n3nccc3NC(=O)c3ccccc3C)CC2)c1 | – | 0.904 |
| CCOC(=O)CNC(=O)N1CCCC(N2CCN(Cc3ccc4c(c3)OCO4)CC2)C1 (stereo not given) | – | 0.922 |
| CCN(CCn1cccn1)c1ccc(-c2nc(COC)no2)cn1 | 0.856 | – |
| CSc1ncc(CN2CC[C@@H](N3CCN(CCc4ccccc4)CC3)[C@H](O)C2)cn1 | – | 1.24 |
| O=C(Cc1ccc(N2CCC(NCc3cnn(-c4ccccc4)n3)CC2)cc1)N1CCC(O)CC1 | 0.662 | – |
| CCN1CC(CN(C)Cc2cn(-c3cccc(C)c3)nc2-c2cccc(F)c2)CC1=O (stereo not given) | – | 0.027 |
| COC(=O)c1ccccc1NC(=O)N1CCCC(Nc2ccc(OC)cc2)C1 (stereo not given) | – | 0.915 |
| COC(=O)c1cccc(C(=O)N2CCCC(C(=O)c3cccc4ccccc34)C2)c1 (stereo not given) | – | 0.364 |
| Cc1cccc(CNC(=O)C2CC23CCN(C(=O)COc2ccccc2Cl)CC3)n1 (stereo not given) | 0.931 | – |
| O=C(CCc1cccs1)N1CCc2[nH]nc(-c3cccc(F)c3)c2C1 | 0.577 | – |
| COc1ccc2c(c1)CCc1cnc(-n3ncc(C(=O)N(C)CC4COCCO4)c3C3CC3)nc1-2 (stereo not given) | 0.871 | – |
| Cc1cc(C(=O)N2CCC(n3nccc3NC(=O)c3ccc4c(c3)OCO4)CC2)c(C)o1 | – | 0.928 |
| CNC(=O)c1cn(C2CCCCC2)cc(C(=O)N2CCN(C/C=C/c3ccccc3)CC2)c1=O | 0.859 | – |
| O=C(c1cc(COc2ccccc2)[nH]n1)N1CCN(C2CCCC2)CC1 | – | 0.928 |
| C=C(C)CNC(=O)c1cc(CN2CCC(Cc3ccccc3)CC2)on1 | – | 0.981 |
| Cc1cccc(N2CCN(c3nc4nonc4nc3N3CCOCC3)CC2)n1 | 0.777 | – |
| CSc1cccc(CNC2CCCN(Cc3ccccc3F)C2)c1 (stereo not given) | 0.82 | – |
| O=C(CSc1ccc2nnc(-c3cccnc3)n2n1)N1CCC(Sc2ccc(F)cc2)CC1 | 0.91 | – |

Random excerpt: 2 entries already listed, in no set order.

| SMILES | bacterial growth OD600 (polymyxin B 0.75 µg/mL) | bacterial growth OD600 (polymyxin B 1 µg/mL) |
| --- | --- | --- |
| COC(=O)c1cccc(C(=O)N2CCCC(C(=O)c3cccc4ccccc34)C2)c1 (stereo not given) | – | 0.364 |
| CCN1CC(CN(C)Cc2cn(-c3cccc(C)c3)nc2-c2cccc(F)c2)CC1=O (stereo not given) | – | 0.027 |
